Test results: PubChem BioAssay AID1508600 (Functional Genomics Laboratory (NCATS/FGL), 2020)
About 3,700 (7%) of roughly 53,000 sequences were called active.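 How the source made its calls: active means gene knockdowns whose robust z-score for IL-1 alpha signal is at least 2 or at most -2, so actives lie on both sides; inactive means the rest.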 The list shows a part of the results.

Test: Components of the Cytosolic LPS Sensing Pathway: Gene Identification via Genome-wide siRNA Screen;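 further: robust z of the log signal after scaling to non-targeting control siRNA wells of the plate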
Conditions: RAW264.7 macrophages, IL-1a HTRF, actives lie on both sides, screened at 100 nM (by protocol), cells primed 5 h with Pam3CSK4 first
Summary of the method: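 Supernatant IL-1a by HTRF from RAW264.7 cells primed with Pam3CSK4 (5 hours) and transfected with LipidA (24 hour) after 48h siRNA knockdown at 100 nM; cell viability checked with CellTiter-Glo.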

Sequence	z-score
GGAGCGAUUUGAUGAUAUGTT against Ppp4r3a	inactive: -0.755
GCCACUAAGAAUCAGACAUTT against Ryr1	inactive: -0.382
GGAUGCUGUUUCCAAAGAATT against Ssr3	inactive: 0.61
GAUCCAGGAUAAAGAGGGCTT against Ubb	inactive: -0.0113
GGAGAUUGAGGAAUCAUCATT against Vmn2r-ps54	inactive: -1.24
GGGUGACCCAGAAGAAAUCTT against Gcnt1	inactive: -0.793
GCCUCAUCGUCAUCGCCAATT against Gpbar1	inactive: -0.897
GGCUCUAUAUCCAGCAGCATT against Srst	inactive: -1.1
GGACUAGAAACAAUGUCAATT against St3gal6	inactive: -1.56
GGUAUGGAUCUUUCUGAUATT against Rif1	inactive: -1.07
GGGAUAUCAAAGCAAAAAUTT against Rab8a	inactive: -0.578
GGGAAACAUAUGGUUUUGCTT against Iqcj	inactive: 1.02
GGACCUGAUCUUCAGGUUUTT against Gpc5	inactive: 1.73
GCAGACGGUGGCAUAUUCUTT against Rfx4	inactive: 0.247
GGUGGUAUUGAAAAGGAAATT against Ankrd13b	inactive: 0.767
GCUUGUUACAGAUGAAUGUTT against Nt5c3	inactive: 1.46
GGUCAGACAGAGUCACUGATT against Magea2	inactive: 0.742
GGCUUCUUGUCCAUGCAAATT against N4bp3	inactive: -0.579
GGCAGAAUUUUCCAACUGATT against Spata20	inactive: 0.344
GGCAUUUUCGUAUAGUUACTT against B3gnt9	inactive: 0.81
GGGAAUUUGGUAUCAAUUUTT against Epgn	inactive: 1.7
GCAGGGUACUGGCUAAAUATT against Cd40	active: 2.93
CCUGACCAUACUAAUAAAUTT against Rala	inactive: -1.06

Sequence	z-score
GGGUCUAGCAGAUUACAAATT against Gjb6	inactive: 1.38
CCUCAGUUUGAACUUGAGATT against Traf3ip2	inactive: 0.723
GGAUGUCUUACCAUGGGAATT against Bhlha9	inactive: 0.193
GCUUACAGCACAACAACAUTT against Ubap1	inactive: -0.00967
GGGAAGGUGGCCUACAUCATT against Necap2	inactive: 1.82
GUUUCAAAUCCCAGAGAAGTT against Defb7	inactive: -0.0344
CGAGGCCUGGAAGGACUUUTT against Klhl8	inactive: 0.0877
GGCAGGCAAACAGUGAUCATT against Lsm4	inactive: -0.909
GGUCCUACUUACUACUGCCTT against Fam83h	inactive: 0.265
GGAAGAAGAUGGUUCCGAATT against Ankzf1	inactive: 0.611
GCUUAGUAAUGCUAACAUUTT against Parg	inactive: 1.21
GGAUGAAGCAUUUAUUCCATT against Bmpr1a	inactive: -0.542
CCUUCUUGCUUCAGAGCAGTT against Slc34a3	inactive: 1.97
GGGAAUAAAGUGUUUGUUUTT against Phf20l1	inactive: 0.0731
GCGUGCUCUUUUUAACUACTT against Septin10	inactive: 1.06
GGACCAGAACCGUUACUUATT against Bet1l	inactive: 0.341
GGCUAGGACCUAUACCAUUTT against Aprt	inactive: 1.14
GGAUUCUUGAAGCUGUUUUTT against Tmbim4	inactive: -1.06
GGCGGAAGAGAAAGACAGCTT against Tle3	inactive: 1.39
GGUAUUAUGGCUGUGGUCUTT against As3mt	inactive: -1.35
GCAACACACUGCUUCCUGGTT against Tmem19	inactive: -1.38
GGCUGUUUACACGUUAGUGTT against Diablo	inactive: -0.0319
CCUUUUGUUAGUGAGUUAGTT against Ywhag	inactive: 0.269

Reformatted: results already given.
Sequence | z-score
GGCGGAAGAGAAAGACAGCTT against Tle3 | inactive: 1.39
GGUAUUAUGGCUGUGGUCUTT against As3mt | inactive: -1.35

(cont.)

Sequence	z-score
GGGAAUCUGGCCAUACUAGTT against 1700022I11Rik	inactive: 0.268
GGGCUUGAUUUGAUCCUGGTT against Nt5el	inactive: -0.99
GCUUAGACAACGACAUUUCTT against Mcoln3	active: 2.04
GAUUGUGUCGUCCAUUACATT against Tuba3a	inactive: -0.546
GGAUCACCACUACUUUAAATT against Cops5	inactive: -0.161
GGUUCCUGAACAUCCUUUUTT against Hyal3	inactive: -0.166
GGAAACCUACCGUUACCUATT against Kcnj5	inactive: -0.181
CCCUCAUUUACUCUAGUAATT against Defb12	inactive: 0.714
GGUCAGAAUGAAUUCAGUUTT against Il10rb	inactive: 1.23
GGUCUUCUUUGAUGUGAGGTT against Ppic	inactive: -0.832
CCAUGUGCUGUGCACUACGTT against Chst14	inactive: 0.358
GCUCAAGGUCUCAUUUUUATT against Il18bp	inactive: -0.463
GGUCUUCAAAGACAUCAGCTT against F11	inactive: -0.156
CCAAUCGGUGAUCAAGAAATT against Tfap2e	inactive: -0.525
GCGAACCUGCUCACCCUUUTT against Grhl3	inactive: 0.68
CCCAUAAUGAUAUAAACCUTT against Ulbp1	inactive: 0.426
GCAAUUGAAAGCUUCGCCCTT against Mcf2l	inactive: -0.423
UGUAAUCACCCACUUUUUCTT against Olfr384	inactive: 1.93
GGGAGCUUUGAAGAGGCUGTT against Olfr130	inactive: -0.604
GCUGAAUCAUUGAUUUACCTT against Tmem183a	inactive: 0.689
GGACGAAAUCUUGUCUGAUTT against Atg4b	active: 2.59
GGAUCCAGUCUAAUAAGAATT against Abcb1a	inactive: -0.35
